According to PMC9209732:
The exact form of at least one protein or probe is not confirmed. A negative result means that nothing was seen under these conditions. At least one verdict was read from the data and is not stated in words by the source. For some assays here: Protein sequences can lack the tags named with them.

By UniProt entry, the sequences of proteins in these tests, tags left out. Where a name states a change or a piece, a line headed by the entry shows the natural chain unless it says otherwise.
UniProt Q02548: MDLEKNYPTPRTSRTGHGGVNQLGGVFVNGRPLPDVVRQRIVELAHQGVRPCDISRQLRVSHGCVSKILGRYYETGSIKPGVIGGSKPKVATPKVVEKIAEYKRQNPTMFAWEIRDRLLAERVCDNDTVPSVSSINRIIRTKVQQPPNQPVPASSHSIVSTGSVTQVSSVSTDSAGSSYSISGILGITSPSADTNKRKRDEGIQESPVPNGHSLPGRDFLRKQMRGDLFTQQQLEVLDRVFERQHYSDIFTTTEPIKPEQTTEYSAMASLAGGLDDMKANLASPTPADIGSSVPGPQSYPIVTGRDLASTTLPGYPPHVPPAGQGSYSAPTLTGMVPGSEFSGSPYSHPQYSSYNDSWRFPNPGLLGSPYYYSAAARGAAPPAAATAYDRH

How the values were obtained:
Assay in all cases: EMSA
Conditions in all cases: EMSA: 5-10 ug protein, 50 nM probe, 5% non-denaturing PAGE, streptavidin-HRP/ECL; pH and temperature not stated; recombinant protein; protein details: His (GST also stated in Results); label: 3' biotin
PPAR-gamma1 = system: PPAR-gamma1
Pax-5 = Pax-5 (UniProt Q02548)
WT1 = WT1 (UniProt P19544)
CTCF = target: T1, CTCF (UniProt P49711)
T1 sequence (looked up, limits assumed): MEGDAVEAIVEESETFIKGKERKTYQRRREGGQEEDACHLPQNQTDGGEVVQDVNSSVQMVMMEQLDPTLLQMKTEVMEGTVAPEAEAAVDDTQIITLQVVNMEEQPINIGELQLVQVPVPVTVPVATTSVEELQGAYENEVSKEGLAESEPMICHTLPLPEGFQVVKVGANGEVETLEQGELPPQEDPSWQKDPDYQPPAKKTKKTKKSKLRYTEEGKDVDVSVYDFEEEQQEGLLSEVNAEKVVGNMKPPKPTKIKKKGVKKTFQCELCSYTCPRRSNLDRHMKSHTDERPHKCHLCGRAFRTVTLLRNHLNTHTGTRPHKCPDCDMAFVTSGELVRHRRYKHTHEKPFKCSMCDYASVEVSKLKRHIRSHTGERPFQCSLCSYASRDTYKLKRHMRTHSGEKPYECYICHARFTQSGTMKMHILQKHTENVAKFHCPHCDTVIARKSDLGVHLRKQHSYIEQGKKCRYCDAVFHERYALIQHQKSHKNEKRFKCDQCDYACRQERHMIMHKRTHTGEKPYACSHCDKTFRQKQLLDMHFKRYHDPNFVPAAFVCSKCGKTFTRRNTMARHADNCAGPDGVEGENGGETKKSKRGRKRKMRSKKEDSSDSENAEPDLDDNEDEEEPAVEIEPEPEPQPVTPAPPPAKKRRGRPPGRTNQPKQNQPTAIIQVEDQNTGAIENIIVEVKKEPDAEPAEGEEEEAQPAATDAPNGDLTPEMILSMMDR

Sp1 = Sp1 (UniProt P08047)

Measured: binding result

CGCTGGCACCGCCCCGCCCCCGCCTCCCGCGGCACCGCCCGCCCGCGCAGACCCCGAGCGCGGCCGCGGACGAA (double strand) [ING5 promoter probe (-48 to 25)]
no binding: all assays above
